No constants are given. Whether binding was seen depends on the method and setting. Some entries that bind do so weakly or less than the wild type.
What was measured:
[1] = target: NSP3 K171E of rotavirus strain RRV (simian rotavirus A strain RRV) (UniProt Q8UZL8); experiment: non-dissociating Western blot (WB-ND); lysates of vaccinia-infected BSC-1 cells (18 hpi) mixed with 2x non-dissociating sample buffer (62.5 mM Tris-HCl pH 6.8, 0.8% SDS, 20% glycerol), 30 min on ice, not boiled; 12% SDS-PAGE in a cold room; blot with anti-NSP3 rat serum; stable dimer band (68 kDa) told apart from monomer/dimerization intermediate band (34 kDa); cells with MG132 or DMSO, in one experiment with cycloheximide
[2] = target: NSP3 Y192A of rotavirus strain RRV (simian rotavirus A strain RRV) (UniProt Q8UZL8); experiment: as above

Row | Substance | binding [1] | binding [2]
1 | NSP3 K171E of rotavirus strain RRV (from UniProt Q8UZL8 4-313) | binds | 
2 | NSP3 Y192A of rotavirus strain RRV (from UniProt Q8UZL8 4-313) |  | binds

Reference: publication PMC5524322, “Species A rotavirus NSP3 acquires its translation inhibitory function prior to stable dimer formation” (PLoS ONE, 2017)
